# Experimental data: PubChem BioAssay AID1259405 (NCATS, 2018)
# Screen: 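Silenced genes that increase secreted GFP made by CHO cells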 (primary screen)
# Cell system: Chinese hamster CHO-K1 ovary cells with stable secreted eGFP expression
# Knock-down reagent: single siRNA against mouse genes, 0.8 pmol siRNA per well (2 µl of 400 nM stock)
# Duration: 3 days
# Measurement: 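Per-well intracellular GFP measured by laser scanning cytometry, plus viability from ATP luminescence, each relative to plate median of non-targeting control wells, in %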
# Direction: GFP, % of control: higher = more GFP per well, higher productivity; viability (ATP), % of control: higher = more viable cells (more ATP)
# Call rule: 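a knock-down is called active if GFP reaches 120% or more of non-targeting control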
# This is a random part of about 50,000 reagents. Over the whole deposit, about 4,000 (8%) were called active. 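Mouse siRNA library applied to hamster cells; one well for each siRNA.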 Entries without a mark were called inactive. The numbers tell different reagents against one gene apart.
Target gene,reagent,"GFP, % of control","viability (ATP), % of control"
Gdf3,1,99.2,61.9
Gdf3,2,62.8,64.2
Gdf3,3,78.3,71.9
Sh2d1b2,1,54.9,53.9
Sh2d1b2,2,89.4,49.1
Sh2d1b2,3,84.2,82.6
Or2ak7,1,64.2,65.2
Or2ak7,2,93.1,61.8
Or2ak7,3,109,48.6
Cdkn2b,1,54.5,58.7
Cdkn2b,2,75.9,45.5
Cdkn2b,3,85.8,108
Cct4,1,137 (active),80.4
Cct4,2,88,100
Cct4,3,72.7,109
Lmx1b,1,96,88.5
Lmx1b,2,69.6,82.5
Lmx1b,3,89.3,95.7
Zfp661,1,58.4,33.8
Zfp661,2,105,64.3
Zfp661,3,65.1,67.2
Ptpre,1,71.6,53.1
Ptpre,2,88.6,79.7
Ptpre,3,113,76.6
Ppnr,1,79.4,96.2
Ppnr,2,79.4,52.2
Ppnr,3,82.6,107
Tspan31,1,86,76.9
Tspan31,2,81.4,63.5
Foxc1,1,71.5,103
Foxc1,2,114,55.8
Gbp4,1,68.6,56.2
Gbp4,2,47.7,64.3
Gbp4,3,31.8,25.6
Sycp1,1,101,60.1
Sycp1,2,69.8,75.8
Ppp6r1,1,119,62.5
Ppp6r1,2,84.3,78.4
Ppp6r1,3,59.6,105
Or4d10b,1,101,92.7
Or4d10b,2,96.2,97
Or4d10b,3,51.4,102
Or52j3,1,98.8,84.5
Or52j3,2,131 (active),69.8
Or52j3,3,43.1,75.9
P2ry10b,1,114,49.4
P2ry10b,2,86.6,82.7
P2ry10b,3,83,95.1
Ncf4,1,101,72.2
Ncf4,2,80.4,84.4
Ncf4,3,37,45.8
Dpp3,1,99.6,83.4
Dpp3,2,84.2,60.8
Dpp3,3,64.7,70.5
Ccdc51,1,28.7,33
Ccdc51,2,139 (active),107
Ccdc51,3,63.4,81.2
Plg,1,41,101
Plg,2,93.6,65.1
Tlcd4,1,93.2,79.2
Tlcd4,2,87.4,61.1
Tlcd4,3,62.2,58.4
Adam3,1,29.4,73.2
Adam3,2,47.2,87.8
Adam3,3,79.5,91.6
Ppp1r26,1,64.6,68.8
Ppp1r26,2,38.3,50.4
Ppp1r26,3,101,65.2
Lax1,1,88.2,105
Lax1,2,49,65.6
Lax1,3,80,53.4

Looked up above.
Ncf4 #3, GFP, % of control = 37
Under “viability (ATP), % of control”, Foxc1 #2 has 55.8
Ppnr #3, viability (ATP), % of control: 107
For “viability (ATP), % of control”, Or4d10b #1 shows 92.7
Lax1 #2, GFP, % of control = 49
For “viability (ATP), % of control”, Ptpre #3 reads 76.6

The results go on.
Target gene,reagent,"GFP, % of control","viability (ATP), % of control"
Twsg1,1,51.2,26
Twsg1,2,65.7,53
Twsg1,3,92.2,93.4
Abca3,1,76.1,96
Abca3,2,59.1,82.9
Abca3,3,63.3,54.2
Sik2,1,103,72.5
Mblac1,1,59.9,55.6
Mblac1,2,76.7,75.1
Mblac1,3,91.9,108
Taar3,1,141 (active),131
Taar3,2,81.1,85.8
Taar3,3,52.5,76.3
Tph2,1,69.5,73.9
Tph2,2,41.4,66
Tph2,3,81.7,83.7
Hip1,1,68.1,70
Hip1,2,64.2,66.2
Hip1,3,79.7,78.4
Or8g30,1,62.4,60.9
Or8g30,2,65,62.9
Or8g30,3,66.7,121
Cfdp1,1,74.7,71.7
Cfdp1,2,40.7,55.4
Cfdp1,3,117,121
Fbxl9,1,74.3,57.4
Fbxl9,2,54.7,46.3
Fbxl9,3,59.7,73.6
Cyp2b9,1,87.5,59.5
Cyp2b9,2,62.5,72.1
Cyp2b9,3,71.2,80.1
Psg28,1,65,51.3
Psg28,2,53.6,44.2
Psg28,3,57.6,95.4
Omp,1,47.2,59.9
Omp,2,52,50
Omp,3,68.5,63.6
